{"source": "the supplement of paper PMC9744312", "note": "Structures can show the parent of a compound that is named as a salt. This is one part of the list. This is a noisy data set."}
{"test_system": "Peyronie's disease tunica albuginea primary fibroblasts", "assay": "inhibition of TGF-beta1-induced alpha-SMA expression (myofibroblast transformation), relative to TGF-beta1-only and untreated controls; higher = stronger inhibition of myofibroblast transformation", "conditions": "10 µM; TGF-beta1 10 ng/mL; 72 h", "units": {"inhibition of TGF-beta1-induced alpha-SMA expression": "%"}}
{"compound": "CCCCC(CC)COC(=O)CC(C(=O)OCC(CC)CCCC)S(=O)(=O)O", "note": "(stereo not drawn) [Docusate Sodium]", "inhibition of TGF-beta1-induced alpha-SMA expression": -44.8}
{"compound": "CCCCCCCCCC(=O)N[C@@H](Cc1c[nH]c2ccccc12)C(=O)N[C@H](CC(N)=O)C(=O)N[C@@H](CC(=O)O)C(=O)N[C@@H]1C(=O)NCC(=O)N[C@@H](CCCN)C(=O)N[C@@H](CC(=O)O)C(=O)N[C@H](C)C(=O)N[C@@H](CC(=O)O)C(=O)NCC(=O)N[C@H](CO)C(=O)N[C@@H]([C@H](C)CC(=O)O)C(=O)N[C@@H](CC(=O)c2ccccc2N)C(=O)O[C@@H]1C", "note": "[Daptomycin]", "inhibition of TGF-beta1-induced alpha-SMA expression": 10.9}
{"compound": "COc1cccc2c1C(=O)c1c(O)c3c(c(O)c1C2=O)CC(O)(C(=O)CO)CC3OC1CC(N)C(O)C(C)O1", "note": "(stereo not drawn) [Doxorubicin (Adriamycin) HCl]", "inhibition of TGF-beta1-induced alpha-SMA expression": "> 100"}
{"compound": "COc1cc(Nc2c(C#N)cnc3cc(OCCCN4CCN(C)CC4)c(OC)cc23)c(Cl)cc1Cl", "note": "[Bosutinib (SKI-606)]", "inhibition of TGF-beta1-induced alpha-SMA expression": "> 100"}
{"compound": "CCCCc1oc2ccc(NS(C)(=O)=O)cc2c1C(=O)c1ccc(OCCCN(CCCC)CCCC)cc1", "note": "[Dronedarone HCl]", "inhibition of TGF-beta1-induced alpha-SMA expression": "> 100"}
{"compound": "CCC1(c2ccccc2)C(=O)NCNC1=O", "note": "[Primidone]", "inhibition of TGF-beta1-induced alpha-SMA expression": 28.6}
{"compound": "COC(=O)C1=C(C)NC(C)=C(C(=O)OC(C)(C)CN(C)CCC(c2ccccc2)c2ccccc2)C1c1cccc([N+](=O)[O-])c1", "note": "(stereo not drawn) [Lercanidipine hydrochloride]", "inhibition of TGF-beta1-induced alpha-SMA expression": -6.17}
{"compound": "CN(C)CCC(c1ccc(Br)cc1)c1ccccn1", "note": "(stereo not drawn) [Brompheniramine hydrogen maleate]", "inhibition of TGF-beta1-induced alpha-SMA expression": 2.39}
{"compound": "c1ccc(-c2ccc(C(c3ccccc3)n3ccnc3)cc2)cc1", "note": "(stereo not drawn) [Bifonazole]", "inhibition of TGF-beta1-induced alpha-SMA expression": 7.18}
{"compound": "Oc1c(Cl)cc(Cl)c2cccnc12", "note": "[Chloroxine]", "inhibition of TGF-beta1-induced alpha-SMA expression": 14.4}
{"compound": "O=C1CC[C@@H](C(=O)N2CSC[C@H]2C(=O)O)N1", "note": "[Pidotimod]", "inhibition of TGF-beta1-induced alpha-SMA expression": 15.7}
{"compound": "O=c1[nH]c2ccccc2n1CCN1CCN(c2cccc(C(F)(F)F)c2)CC1", "note": "[Flibanserin]", "inhibition of TGF-beta1-induced alpha-SMA expression": 16.7}
{"compound": "O=C(c1ccc(F)cc1)C1CCN(CCn2c(=O)[nH]c3ccccc3c2=O)CC1", "note": "[Ketanserin]", "inhibition of TGF-beta1-induced alpha-SMA expression": 12.8}
{"compound": "Cc1[nH]cnc1CN1CCc2c(c3ccccc3n2C)C1=O", "note": "[Alosetron Hydrochloride]", "inhibition of TGF-beta1-induced alpha-SMA expression": 11.2}
{"compound": "CC1(C)OC[C@@H](COC(=O)CCc2ccc(OC[C@@H](O)CNCCNC(=O)N3CCOCC3)cc2)O1", "note": "[Landiolol hydrochloride]", "inhibition of TGF-beta1-induced alpha-SMA expression": 8.97}
{"compound": "CCS(=O)(=O)N1CC(CC#N)(n2cc(-c3ncnc4[nH]ccc34)cn2)C1", "inhibition of TGF-beta1-induced alpha-SMA expression": -4.35}
{"compound": "Clc1ccc2c(c1)CCc1cccnc1C2=C1CCNCC1", "note": "[Desloratadine]", "inhibition of TGF-beta1-induced alpha-SMA expression": 58.5}
{"compound": "O=C1NCC2(CCN(CCc3ccccc3)CC2)O1", "note": "[Fenspiride HCl]", "inhibition of TGF-beta1-induced alpha-SMA expression": 45.8}
